Data reported in the supplement of paper PMC12578635.
The other results are listed elsewhere or left out. No stated cut-off is given here; in the data, active = 150% or more and inactive = the rest. Many values rest on one well or one pass, so single values are uncertain.

Tested on: Staphylococcus aureus JE2-lux inside RAW 264.7 macrophages
Test: intracellular bacterial bioluminescence relative to DMSO vehicle; higher = higher intracellular bacterial metabolic activity
Settings: 10 µM; treatment time 4 h; gentamicin 50 µg/ml
Experimental: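 RAW 264.7 macrophages infected with bioluminescent MRSA JE2-lux (MOI 100) were dispensed into 384-well plates with 10 µM compound in the presence of 50 µg/ml gentamicin. After 4 h at 37 °C, bacterial bioluminescence (a proxy for intracellular bacterial metabolic activity) and host cell viability (CellTiter-Fluor) were read and normalised to 0.1% DMSO vehicle controls. Single-pass screen of the UNC CICBDD kinase-targeted library (>4,700 compounds).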

SMILES | intracellular bacterial bioluminescence
COc1ccc(C(=O)NCCNc2nc3c(C)cccc3cc2C#N)cc1 | inactive: 101%
COCCNC(=O)CSc1nc(-c2ccccc2)nc2ccc(Cl)cc12 | inactive: 100%
Cc1ccc(-c2cc(C(F)(F)F)n3nc(C(=O)Nc4ccc5c(c4)OCO5)nc3n2)cc1 | inactive: 77%
Cc1ccc(NC(=O)c2cc3c(CO)cnc(C)c3o/c2=N\c2cccc3ccccc23)cc1C | inactive: 120%
COc1cc(C2=NN3C(C2)c2ccccc2OC3c2cccs2)ccc1O (stereo unspecified) | inactive: 105%
CC1(C)Oc2ccc(NC(=O)COc3ccc(CN4CCCC4)cc3)cc2O1 | inactive: 91.8%
Cc1cc2c(=O)n(CC(=O)N3CCC(O)(c4ccccc4C)CC3)cnc2s1 | inactive: 111%
COc1cccc(C(=O)Nc2cccc(-c3nc4ncccc4o3)c2)c1 | inactive: 70.7%
Cc1nc(Nc2ccc(NC(=O)Nc3cccc(C(F)(F)F)c3)cc2)cc(N2CCOCC2)n1 | inactive: 78.1%
CC(C)(C)c1nc(SCC(=O)Nc2ccc3c(c2)OCO3)c2ccccc2n1 | inactive: 88%
Cc1ccc(F)cc1Nc1ncnc(N)c1[N+](=O)[O-] | inactive: 89.2%
Cc1ccc(C(=O)Nc2ccc3c(c2)C(=O)NC3=O)cc1C | inactive: 100%
CC(C)c1ccc2nc3sc(C(=O)Nc4nccs4)c(N)c3cc2c1 | inactive: 79.2%
Cc1cccc(C(c2sc3nc(C)nn3c2O)N2CCCC2)c1 (stereo unspecified) | inactive: 98.6%
CC1CCc2c(sc3ncnc(NCCN4CCOCC4)c23)C1 (stereo unspecified) | inactive: 97.4%
CCN(C(=O)C1CCCCC1)c1nc2c(s1)CCc1oc(C)cc1-2 | inactive: 89.3%
COc1ccc(NC(=O)CSc2nc3ccccc3o2)cc1 | inactive: 103%
Cc1ccc(C2=NS(=O)(=O)N(C)C(C(=O)Nc3cc(C)n(CC(=O)Nc4cccnc4)n3)=C2)cc1 | inactive: 101%
Cc1c(C(=O)Oc2cc(N)n(S(C)(=O)=O)n2)cccc1[N+](=O)[O-] | inactive: 95.5%
CCC(=O)Nc1ccc(N2C(=O)CS/C2=N\NC(=O)c2ccc(O)cc2)cc1 | active: 156%
Cc1ccc(-n2c(=O)c3oc4ccccc4c3n(CC(=O)Nc3ccccc3F)c2=O)cc1 | inactive: 94.8%
CC(=O)Nc1cccc(NC(=O)CSc2nnc(NC(=O)Cc3ccc(F)cc3)s2)c1 | inactive: 75.9%
O=C(CS(=O)(=O)c1ccccc1)Nc1cccc2c1C(=O)c1ccccc1C2=O | inactive: 69.4%

SMILES | intracellular bacterial bioluminescence
Brc1ccc2nc(NCc3ccccn3)nc(-c3ccccc3)c2c1 | inactive: 13.5%
O=C(CSc1ncnc2[nH]ncc12)Nc1nc(-c2ccco2)c(-c2ccco2)s1 | inactive: 111%
O=C(NNc1nc2ccc(Cl)cc2s1)c1nc2ccccc2s1 | inactive: 113%
Cc1cccc(N2CCN(C(=O)c3cc(CN4CCOCC4)on3)CC2C)c1 (stereo unspecified) | inactive: 114%
CC(=O)c1ccc(-n2nnnc2SCC(=O)c2ccc3c(c2)OCCO3)cc1 | inactive: 83.4%
CC(C)N1C(=O)c2ccccc2Sc2cc(NC(=O)c3cncc(Br)c3)ccc21 | inactive: 8.85%
COc1ccc(NC(=O)Cn2c(=O)c3cc(Cl)ccc3n3nncc23)cc1 | inactive: 65.1%
CCCCc1c(C)nn(-c2nc(C)c(C(=O)Nc3cccc(C)c3C)s2)c1O | inactive: 114%
CC(C)(C)NC(=O)c1cccc2c1-c1ccccc1C2=O | inactive: 95.5%
CCc1cccc(NC(=O)c2nn(C)c(C(F)(F)F)c2Cl)c1 | inactive: 116%
O=C(CSc1ncnc2nc[nH]c12)N1CCN(Cc2ccc3c(c2)OCO3)CC1 | inactive: 97.6%
CCOc1ccccc1/C=N/NC(=O)c1n[nH]c2c1CCC2 | active: 158%
O=C(Nc1ccc(SCc2nnc(-c3ccccc3)o2)cc1)C1CC1 | inactive: 60.4%
Cc1c(-c2ccccc2)n[nH]c1C(=O)NC(c1ccccc1)c1ccnn1C (stereo unspecified) | inactive: 85.3%
Cc1nn(-c2nc3ccccc3[nH]2)c2c1C(c1ccc([N+](=O)[O-])s1)CC(=O)N2 (stereo unspecified) | inactive: 34.7%
CCOC(=O)c1ccccc1NC(=O)CC1S/C(=N/C)N(C)C1=O (stereo unspecified) | inactive: 77.3%
CCc1ccc2[nH]c3nc(SCC(=O)Nc4nnc(C(C)C)s4)nnc3c2c1 | inactive: 32.4%
COc1cccc(OC(=O)c2cc3c(-c4ccccc4F)nn(C)c3s2)c1 | inactive: 60.6%
CC(C)N1C(=O)/C(=C2/C(=O)N(CC(N)=O)c3ccccc32)SC1=S | inactive: 90.6%
CCOC(=O)Cc1ccc(NC(=O)N2CCc3c(c(C(=O)N4CCCCC4)nn3C)C2)cc1 | inactive: 121%
O=C(Cc1csc2nc(-c3ccc(F)cc3)cn12)NCc1ccc(F)cc1 | inactive: 72.4%
O=C(C1CCN(c2nccnc2Oc2ccccc2)CC1)N1CCN(c2cccc(Cl)c2)CC1 | inactive: 47.7%
CCN(CC(O)Cn1c2ccccc2c2ccccc21)S(=O)(=O)c1ccc(F)cc1 (stereo unspecified) | inactive: 105%

SMILES | intracellular bacterial bioluminescence
COc1ccc(OC)c(S(=O)(=O)NCCc2sc(-c3ccc(F)cc3)nc2C)c1 | inactive: 84.1%
Cc1cc(C(=O)NC2CCCOC2)c2cccc(Cl)c2n1 (stereo unspecified) | inactive: 100%
Cc1ccc(S(=O)(=O)Nc2ccccc2C(=O)Nc2c(C(N)=O)oc3ccccc23)cc1 | inactive: 95.5%
COc1ccc(Nc2ncnc3scc(-c4ccc(Cl)cc4)c23)c(OC)c1 | inactive: 106%
COc1ccccc1NC(=O)CSc1ncnc2c1oc1ccccc12 | inactive: 60.4%
O=c1ccn(-c2nc(-c3ccccc3)sc2-c2ccccc2)c(=O)[nH]1 | inactive: 90.7%
COc1ccc(-c2noc(N3CCC(C(=O)N(C)c4ccc(F)cc4)CC3)n2)cc1 | inactive: 114%
O=C(CSc1nc(-c2ccc(F)cc2)nc2c1Cc1ccccc1O2)Nc1ccc(C(=O)O)cc1 | inactive: 92.7%
COc1ccc(-c2nn(-c3ccccc3)cc2CNC(=O)/C=C/C(=O)O)cc1 | inactive: 92.6%
Cc1ccc(NC(=O)CSc2nnc(-c3cccnc3)n2N)cc1Cl | inactive: 136%
O=C(NNc1nc2ccc(F)cc2s1)c1ccc(S(=O)(=O)N2CCc3ccccc3C2)cc1 | inactive: 50.5%
COc1ccc(NC(=O)CSc2nnc3[nH]c(=O)ccn23)c(OC)c1 | inactive: 98.5%
Cc1ccc(-c2nnc3ccccc3c2C(=O)Nc2ccccc2Cl)cc1 | inactive: 80.4%
CCCc1n[nH]c2c1C(C1CC=CCC1)C(C#N)=C(N)O2 (stereo unspecified) | inactive: 85.5%
CCOC(=O)c1[nH]c2ccccc2c1NC(=O)c1cc(Cl)ccc1OC | inactive: 91.4%
COc1ccccc1NC(=O)C1CCN(c2cnccn2)CC1 | inactive: 91.6%
Cc1ccc(OCC(O)Cn2c(NCCCO)nc3c2c(=O)n(C)c(=O)n3C)cc1C (stereo unspecified) | inactive: 86.1%
O=C(Nc1ccccc1Cl)C1CCN(C(=O)Nc2ccccc2)CC1 | inactive: 86%
NC(=O)c1nc(-c2ccoc2)nc2c1[nH]c(=O)n2-c1ccc(Cl)cc1 | inactive: 92.8%
O=C(CSc1nccc2ccccc12)NC1CCCOC1 (stereo unspecified) | inactive: 104%
Cc1ccc(-c2csc(-c3cccn3CC(=O)N3CCN(c4cccc(C)c4)C(C)C3)n2)cc1 (stereo unspecified) | inactive: 77.3%
COCc1c(Br)c(C)nc(OCC(=O)N/N=C/c2ccccc2O)c1C#N | inactive: 97.4%
COC(=O)c1c(NC(=O)CC2Sc3ccccc3NC2=O)sc2c1CCC(C(C)(C)C)C2 (stereo unspecified) | inactive: 106%

SMILES | intracellular bacterial bioluminescence
COc1cccc(Nc2nc(N3CCOCC3)c3cnn(C)c3n2)c1 | inactive: 119%
CCc1ccccc1NC(=O)NC1CC(=O)N(c2cccc(OC)c2)C1 (stereo unspecified) | inactive: 94%
CCC(C)NC(=O)c1cc2cc(OC)ccc2oc1=O (stereo unspecified) | inactive: 96.6%
Cc1cccc(N2CCN(S(=O)(=O)c3cc(-c4ccno4)oc3C)CC2C)c1 (stereo unspecified) | inactive: 101%
O=C(O)C(Cc1c[nH]cn1)N1C(=O)c2cccc([N+](=O)[O-])c2C1=O (stereo unspecified) | inactive: 112%
O=C(c1ccccc1)N1N=C(c2ccc(O)cc2)CC1c1ccco1 (stereo unspecified) | inactive: 80.4%
NC(=O)C1CCN(C(=O)Cc2cc(=O)[nH]c(=O)[nH]2)CC1 | inactive: 98.2%
COc1ccc(NC(=O)c2ccccc2NS(=O)(=O)c2ccc(F)cc2)c([N+](=O)[O-])c1 | inactive: 125%
Cc1nc(C)c(C(=O)N2CCN(S(=O)(=O)c3c(C)nn(Cc4ccccc4)c3C)CC2)s1 | inactive: 70.4%
COc1ccc(-c2nc3c(C)cccn3c2NCc2ccc3c(c2)OCO3)cc1OC | inactive: 72.6%
Cc1cccc(CNC(=O)c2nn(C)c3c2CN(S(=O)(=O)c2cn(C)cn2)CC3)c1 | inactive: 108%
CCCCNC(=O)c1cnc(N2CCOCC2)nc1C | inactive: 134%
O=C(CSc1cc[nH]c(=O)n1)NCc1ccccc1 | inactive: 103%
Cc1ccn2c(=O)c(C(=O)NCCCN3CC(C)CC(C)C3)c(O)nc2c1 (stereo unspecified) | inactive: 142%
CCCNC(=O)CCc1c(C)[nH]c2nc(NCc3cccs3)nn2c1=O | inactive: 106%
Cc1ccc(SCc2cc(=O)[nH]c(N3CCN(c4ccccc4)CC3)n2)cc1 | inactive: 94.7%
CCCCc1nc(SCc2cccc(C(F)(F)F)c2)c2c(=O)n(C)c(=O)n(C)c2n1 | inactive: 88.1%
O=C(CSC1=NC2(CCCCC2)N=C1c1ccccc1)Nc1ccc2c(c1)OCCO2 | inactive: 99.8%
COc1ccc(Cl)cc1NC(=O)CSc1nc2c(c(=O)n1C)SC(C)C2 (stereo unspecified) | inactive: 76%
COC(=O)c1sccc1N1Cc2ccncc2C1=O | inactive: 118%
NC(=O)C1CCN(C(=O)CCCCCn2c(=O)[nH]c3ccsc3c2=O)CC1 | inactive: 116%
COc1ccc(C2=NN(S(C)(=O)=O)C(c3cn(-c4ccccc4)nc3-c3ccc(C)cc3)C2)cc1 (stereo unspecified) | inactive: 125%

A second format for some results above:
SMILES	intracellular bacterial bioluminescence
O=C(O)C(Cc1c[nH]cn1)N1C(=O)c2cccc([N+](=O)[O-])c2C1=O (stereo unspecified)	inactive: 112%
O=C(c1ccccc1)N1N=C(c2ccc(O)cc2)CC1c1ccco1 (stereo unspecified)	inactive: 80.4%
NC(=O)C1CCN(C(=O)Cc2cc(=O)[nH]c(=O)[nH]2)CC1	inactive: 98.2%
